In the supplement of paper PMC10849652:
The other results are listed elsewhere or left out. Residues, ends and D or L forms follow the SMILES beside them. *: point of attachment. Cbz = O=C(OCc1ccccc1)*

By UniProt entry, the sequences of proteins in these tests, tags left out. Where a name states a change or a piece, a line headed by the entry shows the natural chain unless it says otherwise.
UniProt Q9Y3I0: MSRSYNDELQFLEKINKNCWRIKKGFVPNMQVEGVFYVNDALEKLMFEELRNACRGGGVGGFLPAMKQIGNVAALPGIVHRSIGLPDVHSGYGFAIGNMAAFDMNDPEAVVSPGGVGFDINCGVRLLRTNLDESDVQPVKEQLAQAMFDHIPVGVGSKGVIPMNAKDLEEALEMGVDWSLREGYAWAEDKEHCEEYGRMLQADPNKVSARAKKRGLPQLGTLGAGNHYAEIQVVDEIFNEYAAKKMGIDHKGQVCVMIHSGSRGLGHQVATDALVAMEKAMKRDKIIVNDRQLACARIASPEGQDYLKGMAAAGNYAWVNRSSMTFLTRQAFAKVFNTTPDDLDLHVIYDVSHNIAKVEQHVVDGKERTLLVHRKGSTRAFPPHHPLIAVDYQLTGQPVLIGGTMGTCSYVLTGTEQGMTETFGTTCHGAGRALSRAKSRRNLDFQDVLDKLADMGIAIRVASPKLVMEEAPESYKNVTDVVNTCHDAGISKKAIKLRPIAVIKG
UniProt Q9BW04: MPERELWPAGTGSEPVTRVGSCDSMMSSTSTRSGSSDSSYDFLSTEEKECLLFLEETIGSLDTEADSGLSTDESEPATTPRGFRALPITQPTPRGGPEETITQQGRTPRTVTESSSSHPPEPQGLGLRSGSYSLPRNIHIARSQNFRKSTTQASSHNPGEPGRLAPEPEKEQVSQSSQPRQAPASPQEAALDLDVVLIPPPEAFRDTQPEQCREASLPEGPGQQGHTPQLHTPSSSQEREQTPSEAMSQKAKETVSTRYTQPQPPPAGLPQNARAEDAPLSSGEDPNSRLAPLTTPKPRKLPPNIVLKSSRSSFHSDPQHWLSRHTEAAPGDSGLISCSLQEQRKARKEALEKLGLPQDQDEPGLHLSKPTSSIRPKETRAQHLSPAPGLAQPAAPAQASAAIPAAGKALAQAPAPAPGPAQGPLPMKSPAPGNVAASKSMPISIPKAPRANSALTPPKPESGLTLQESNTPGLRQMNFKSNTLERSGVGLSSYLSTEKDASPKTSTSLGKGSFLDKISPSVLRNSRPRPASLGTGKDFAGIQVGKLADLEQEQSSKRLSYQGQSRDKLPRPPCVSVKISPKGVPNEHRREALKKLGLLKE
UniProt O95197: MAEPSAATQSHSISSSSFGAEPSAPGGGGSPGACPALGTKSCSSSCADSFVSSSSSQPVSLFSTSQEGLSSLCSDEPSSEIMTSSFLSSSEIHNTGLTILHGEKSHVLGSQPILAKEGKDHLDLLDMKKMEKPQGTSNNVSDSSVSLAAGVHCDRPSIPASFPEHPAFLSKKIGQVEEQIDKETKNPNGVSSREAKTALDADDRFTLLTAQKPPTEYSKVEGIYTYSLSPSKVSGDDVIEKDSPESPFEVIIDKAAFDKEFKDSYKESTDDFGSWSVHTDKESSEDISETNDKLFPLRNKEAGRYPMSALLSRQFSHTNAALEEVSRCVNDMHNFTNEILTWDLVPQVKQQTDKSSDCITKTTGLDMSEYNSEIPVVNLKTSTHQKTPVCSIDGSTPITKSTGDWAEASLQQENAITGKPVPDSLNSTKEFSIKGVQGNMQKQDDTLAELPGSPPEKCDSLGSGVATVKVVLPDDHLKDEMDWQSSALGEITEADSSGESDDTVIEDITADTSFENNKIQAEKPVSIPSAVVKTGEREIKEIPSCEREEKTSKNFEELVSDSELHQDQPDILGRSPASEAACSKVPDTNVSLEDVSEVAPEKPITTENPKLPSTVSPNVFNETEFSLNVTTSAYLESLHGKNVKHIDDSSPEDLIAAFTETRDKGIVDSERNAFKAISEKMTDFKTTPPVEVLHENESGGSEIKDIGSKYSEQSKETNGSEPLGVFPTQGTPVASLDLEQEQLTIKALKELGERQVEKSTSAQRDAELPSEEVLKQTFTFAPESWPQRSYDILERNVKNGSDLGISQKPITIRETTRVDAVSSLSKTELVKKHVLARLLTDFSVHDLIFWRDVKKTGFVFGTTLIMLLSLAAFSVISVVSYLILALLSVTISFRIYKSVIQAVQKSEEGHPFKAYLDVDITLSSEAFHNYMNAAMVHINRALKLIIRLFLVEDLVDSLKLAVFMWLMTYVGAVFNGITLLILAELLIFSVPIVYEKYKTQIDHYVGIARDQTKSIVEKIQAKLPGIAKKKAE
UniProt Q6PCB5: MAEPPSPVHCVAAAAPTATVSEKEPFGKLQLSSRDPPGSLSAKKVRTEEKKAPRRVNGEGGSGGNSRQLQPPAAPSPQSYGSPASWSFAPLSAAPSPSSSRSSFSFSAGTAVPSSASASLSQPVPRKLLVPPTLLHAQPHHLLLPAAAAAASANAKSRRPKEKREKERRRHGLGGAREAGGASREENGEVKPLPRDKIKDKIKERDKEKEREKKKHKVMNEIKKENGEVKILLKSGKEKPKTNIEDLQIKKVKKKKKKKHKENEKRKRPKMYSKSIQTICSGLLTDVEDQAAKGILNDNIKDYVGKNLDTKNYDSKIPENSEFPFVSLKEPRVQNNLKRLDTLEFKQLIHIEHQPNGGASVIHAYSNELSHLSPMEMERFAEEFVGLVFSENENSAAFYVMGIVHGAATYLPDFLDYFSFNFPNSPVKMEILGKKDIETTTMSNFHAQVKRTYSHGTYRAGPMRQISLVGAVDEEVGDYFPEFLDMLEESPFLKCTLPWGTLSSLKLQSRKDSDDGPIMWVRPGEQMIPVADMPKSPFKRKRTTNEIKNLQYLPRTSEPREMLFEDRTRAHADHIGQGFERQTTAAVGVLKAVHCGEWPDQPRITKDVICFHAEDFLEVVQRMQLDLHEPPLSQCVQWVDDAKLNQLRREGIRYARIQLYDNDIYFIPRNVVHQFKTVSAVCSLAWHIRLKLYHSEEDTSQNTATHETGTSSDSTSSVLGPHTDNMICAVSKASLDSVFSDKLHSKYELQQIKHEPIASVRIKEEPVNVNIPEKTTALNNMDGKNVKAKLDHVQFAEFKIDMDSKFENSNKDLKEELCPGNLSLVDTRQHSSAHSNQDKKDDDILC
UniProt P55735: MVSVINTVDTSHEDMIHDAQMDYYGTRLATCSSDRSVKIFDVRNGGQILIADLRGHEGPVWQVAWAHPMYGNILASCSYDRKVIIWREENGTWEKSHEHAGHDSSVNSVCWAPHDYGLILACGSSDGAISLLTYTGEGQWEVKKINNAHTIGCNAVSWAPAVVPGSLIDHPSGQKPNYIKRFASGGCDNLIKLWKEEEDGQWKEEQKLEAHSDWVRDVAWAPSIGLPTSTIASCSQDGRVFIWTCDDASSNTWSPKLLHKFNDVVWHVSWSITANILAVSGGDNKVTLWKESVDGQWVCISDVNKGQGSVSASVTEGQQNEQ
UniProt P21912: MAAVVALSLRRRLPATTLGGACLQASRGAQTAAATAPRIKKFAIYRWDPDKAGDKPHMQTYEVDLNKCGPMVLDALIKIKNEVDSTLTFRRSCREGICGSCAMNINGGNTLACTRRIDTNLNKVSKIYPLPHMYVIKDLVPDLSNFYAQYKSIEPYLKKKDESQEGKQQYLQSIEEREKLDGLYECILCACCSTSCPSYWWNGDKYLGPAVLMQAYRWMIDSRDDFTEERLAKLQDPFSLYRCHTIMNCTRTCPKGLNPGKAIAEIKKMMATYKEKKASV
UniProt Q9UHR5: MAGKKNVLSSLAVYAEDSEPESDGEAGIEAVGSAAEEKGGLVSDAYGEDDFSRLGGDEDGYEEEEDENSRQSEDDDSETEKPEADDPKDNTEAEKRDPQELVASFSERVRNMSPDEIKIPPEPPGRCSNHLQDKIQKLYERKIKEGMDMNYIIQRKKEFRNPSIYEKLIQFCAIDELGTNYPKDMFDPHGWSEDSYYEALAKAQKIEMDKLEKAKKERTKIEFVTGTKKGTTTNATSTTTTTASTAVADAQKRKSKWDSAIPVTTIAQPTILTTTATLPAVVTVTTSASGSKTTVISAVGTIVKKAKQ
UniProt Q9Y3A4: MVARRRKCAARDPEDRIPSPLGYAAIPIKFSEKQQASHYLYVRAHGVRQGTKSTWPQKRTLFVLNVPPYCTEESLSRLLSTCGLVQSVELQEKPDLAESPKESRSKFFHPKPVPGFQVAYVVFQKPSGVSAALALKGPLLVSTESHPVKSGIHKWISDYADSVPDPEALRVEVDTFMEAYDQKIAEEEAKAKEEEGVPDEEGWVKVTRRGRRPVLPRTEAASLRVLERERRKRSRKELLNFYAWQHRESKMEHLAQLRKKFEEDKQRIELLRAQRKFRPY
UniProt O15126: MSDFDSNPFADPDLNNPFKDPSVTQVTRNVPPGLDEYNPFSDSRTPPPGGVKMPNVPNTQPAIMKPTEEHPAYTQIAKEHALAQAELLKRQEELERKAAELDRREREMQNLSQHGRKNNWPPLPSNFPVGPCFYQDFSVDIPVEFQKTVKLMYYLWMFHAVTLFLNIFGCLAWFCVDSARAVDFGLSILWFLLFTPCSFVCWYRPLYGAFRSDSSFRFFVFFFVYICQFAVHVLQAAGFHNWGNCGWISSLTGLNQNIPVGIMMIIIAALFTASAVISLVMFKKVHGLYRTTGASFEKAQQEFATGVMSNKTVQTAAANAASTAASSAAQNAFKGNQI
UniProt Q96I15: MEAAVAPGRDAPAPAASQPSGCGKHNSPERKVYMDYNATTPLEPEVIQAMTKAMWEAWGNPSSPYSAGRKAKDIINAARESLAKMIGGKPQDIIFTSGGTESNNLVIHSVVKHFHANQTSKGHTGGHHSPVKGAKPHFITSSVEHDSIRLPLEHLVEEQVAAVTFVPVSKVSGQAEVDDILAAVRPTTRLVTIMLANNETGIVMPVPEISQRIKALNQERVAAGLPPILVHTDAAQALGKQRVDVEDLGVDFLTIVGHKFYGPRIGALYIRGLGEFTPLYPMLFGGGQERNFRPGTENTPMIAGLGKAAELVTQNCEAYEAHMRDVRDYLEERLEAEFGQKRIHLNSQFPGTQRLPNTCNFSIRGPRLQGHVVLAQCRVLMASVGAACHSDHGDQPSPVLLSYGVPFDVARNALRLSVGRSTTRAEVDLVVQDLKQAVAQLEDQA
UniProt Q0VDG4: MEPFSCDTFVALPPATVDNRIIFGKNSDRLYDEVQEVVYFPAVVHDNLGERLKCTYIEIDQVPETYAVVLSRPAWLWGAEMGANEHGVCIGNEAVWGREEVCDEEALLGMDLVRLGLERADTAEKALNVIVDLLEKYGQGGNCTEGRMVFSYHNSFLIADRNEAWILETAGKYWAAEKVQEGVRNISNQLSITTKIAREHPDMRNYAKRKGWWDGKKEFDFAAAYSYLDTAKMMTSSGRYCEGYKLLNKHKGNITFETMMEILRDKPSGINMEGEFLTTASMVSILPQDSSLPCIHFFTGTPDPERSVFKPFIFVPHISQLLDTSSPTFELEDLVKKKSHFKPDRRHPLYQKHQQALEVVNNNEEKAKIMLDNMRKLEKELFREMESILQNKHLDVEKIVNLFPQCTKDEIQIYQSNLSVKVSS
UniProt Q9UBE0: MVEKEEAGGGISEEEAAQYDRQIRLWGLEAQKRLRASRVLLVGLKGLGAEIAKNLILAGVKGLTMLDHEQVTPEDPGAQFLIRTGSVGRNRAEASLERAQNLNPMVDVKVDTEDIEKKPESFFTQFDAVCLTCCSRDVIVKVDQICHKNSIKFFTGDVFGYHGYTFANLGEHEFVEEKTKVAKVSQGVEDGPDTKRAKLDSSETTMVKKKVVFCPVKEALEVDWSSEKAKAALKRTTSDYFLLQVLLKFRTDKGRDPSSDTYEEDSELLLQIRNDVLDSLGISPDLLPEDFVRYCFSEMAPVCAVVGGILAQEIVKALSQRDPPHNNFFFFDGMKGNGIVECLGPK
UniProt Q9Y224: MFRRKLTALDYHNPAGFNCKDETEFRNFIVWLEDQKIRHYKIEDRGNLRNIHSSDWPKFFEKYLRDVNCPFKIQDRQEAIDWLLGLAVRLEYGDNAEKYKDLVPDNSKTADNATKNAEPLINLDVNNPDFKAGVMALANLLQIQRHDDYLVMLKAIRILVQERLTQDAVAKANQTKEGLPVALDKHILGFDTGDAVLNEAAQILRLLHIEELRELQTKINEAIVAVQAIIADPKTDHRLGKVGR

Assays:
Assay in all cases: log2 fold change, soluble protein after heating vs DMSO (PISA); higher = thermal stabilisation; K562 cells, 10 uM, 30 min; active = over 0.2 and 3.5 SD of the protein, either way, in both replicates (recomputed)
erlotinib = compound: C#Cc1cccc(Nc2ncnc3cc(OCCOC)c(OCCOC)cc23)c1 [erlotinib]
How it was run: (§1)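 For each measurement, 10 μM compound was applied for 30 min to K562 cells at 2×10^6 cells/mL. Aliquots were heated for 3 min across 48°C-58°C, pooled, and extracted in PBS with 0.5% NP-40 at 4°C; the supernatant after 21,000xg for 90 min was soluble protein. This was quantified by TMTpro 16plex LC-MS/MS with channel sums equalised, and thermal stability was reported relative to control samples from duplicates, on a log2 fold-change scale.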

[1] = compound: C/C(=N\NC(=O)C1=CC(=CC=C1)S(=O)(=O)N2CCOCC2)/C3=C(C=CC(=C3)Cl)O
How it was run: as §1

[2] = compound: C1=CC(=C(C=C1Cl)C2=NC3=NC=CN=C3C(=N2)NC4=CC=NC=C4)F
How it was run: as §1

[3] = compound: C1=CC(=CC=C1C2=NC3=C(N2)C=C(C=C3)C(=O)N)OC4=CC=C(C=C4)Cl
How it was run: as §1

[4] = compound: C1=CC2=C(C=CC(=C2)/C=C\3/C(=O)NC(=NCC4=CC=CS4)S3)N=C1
How it was run: as §1

[5] = compound: C1=CC2=NC=CN=C2C=C1/C=C/3\C(=O)NC(=O)S3
How it was run: as §1

[6] = compound: C1=CC=C(C=C1)C2=NC(=C(N2)C3=CC=NC=C3)C4=CC(=C(C=C4)Cl)O
How it was run: as §1

[7] = compound: C1=CC=C2C(=C1)C3=NNC4=CC=CC(=C43)C2=O
How it was run: as §1

[8] = compound: C1CCN(C1)C(=O)NC2=CC=CC(=C2)NC3=NC=C(C(=N3)NCCC4=CN=CN4)Br
How it was run: as §1

[9] = compound: C1CN(CCC1(CC2=CC=C(C=C2)Cl)N)C3=NC=NC4=C3C=CN4
How it was run: as §1

IRAK-1-4 Inhibitor I = compound: C1COCCN1CCN2C3=CC=CC=C3N=C2NC(=O)C4=CC(=CC=C4)[N+](=O)[O-] [IRAK-1-4 Inhibitor I]
How it was run: as §1

ibrutinib = compound: C=CC(=O)N1CCC[C@@H](n2nc(-c3ccc(Oc4ccccc4)cc3)c3c(N)ncnc32)C1 [ibrutinib]
How it was run: as §1

[10] = compound: CC(=O)c1cnc2ccc(-c3cc(Cl)c(O)c(Cl)c3)nc2c1N[C@H]1CC[C@H](CN(C)C)CC1
How it was run: as §1

ralimetinib = compound: CC(C)(C)Cn1c(N)nc2ccc(-c3[nH]c(C(C)(C)C)nc3-c3ccc(F)cc3)nc21 [ralimetinib]
How it was run: as §1

[11] = compound: CC(C)(O)CC(=O)NCCn1ccc2ncnc(Nc3ccc(Oc4cccc(C(F)(F)F)c4)c(Cl)c3)c21
How it was run: as §1

[12] = compound: CC(C)C1=C2N=C(C=C(N2N=C1)NCC3=CC=CC=C3)NCCCCCCN
How it was run: as §1

[13] = compound: CC(C)C[C@@H](C=O)NC(=O)[C@H](CC(C)C)NC(=O)[C@H](CC(C)C)NC(=O)OCc1ccccc1
How it was run: as §1

pinometostat = compound: CC(C)N(C[C@H]1O[C@@H](n2cnc3c(N)ncnc32)[C@H](O)[C@@H]1O)[C@H]1C[C@@H](CCc2nc3cc(C(C)(C)C)ccc3[nH]2)C1 [pinometostat]
How it was run: as §1

[14] = compound: CC1=C(C(CC(=O)N1)C2=CC=C(C=C2)C(F)(F)F)C(=O)NC3=C(C=C4C(=C3)C=NN4)F
How it was run: as §1

[15] = compound: CC1=C(C2=C(C=C1)C(=O)C3=CC=CC=C3N2CCCN)C
How it was run: as §1

Measured: log2 fold change

RTCB (UniProt Q9Y3I0)
inactive: erlotinib 0.014 | [1] -0.041 | [2] -0.021 | [3] 0.012 | [4] -0.014 | [5] -0.008 | [6] 0.032 | [7] -0.006 | [8] 0.012 | [9] -0.014 | IRAK-1-4 Inhibitor I 0.003 | ibrutinib -0.004 | [10] 0.026 | ralimetinib 0.019 | [11] 0.004 | [12] -0.059 | [13] -0.002 | pinometostat 0.056 | [14] -0.01 | [15] -0.052

SARG (UniProt Q9BW04)
inactive: erlotinib 0.027 | [1] -0.047 | [2] 0.012 | [3] 0.006 | [4] -0.004 | [5] 0.002 | [6] -0.055 | [7] 0.013 | [8] 0.046 | [9] 0.026 | IRAK-1-4 Inhibitor I 0.048 | ibrutinib 0.029 | [10] 0.041 | ralimetinib -0.038 | [11] -0.024 | [12] 0.04 | [13] 0.056 | pinometostat 0.004 | [14] -0.013 | [15] 0.072

SCYL1 (UniProt Q96KG9)
inactive: erlotinib -0.016 | [1] 0.037 | [2] 0.048 | [3] 0.034 | [4] 0.001 | [5] 0.051 | [6] -0.011 | [7] -0.013 | [8] -0.024 | [9] 0.032 | IRAK-1-4 Inhibitor I -0.01 | ibrutinib -0.027 | [10] 0 | ralimetinib 0.012 | [11] -0.044 | [12] 0.112 | [13] 0.031 | pinometostat -0.02 | [14] 0.013 | [15] 0.015

SEC24D isoform 2 (UniProt O94855)
inactive: erlotinib -0.018 | [1] 0.049 | [2] 0.074 | [3] 0.006 | [4] -0.005 | [5] 0.043 | [6] -0.036 | [7] 0.034 | [8] 0.006 | [9] 0.011 | IRAK-1-4 Inhibitor I -0.007 | ibrutinib -0.013 | [10] 0.033 | ralimetinib -0.013 | [11] -0.066 | [12] -0.016 | [13] -0.014 | pinometostat 0.024 | [14] 0.024 | [15] -0.008

Reprinted from the listing (2 entries):
SARG (UniProt Q9BW04)
inactive: erlotinib 0.027 | [1] -0.047 | [2] 0.012 | [3] 0.006 | [4] -0.004 | [5] 0.002 | [6] -0.055 | [7] 0.013 | [8] 0.046 | [9] 0.026 | IRAK-1-4 Inhibitor I 0.048 | ibrutinib 0.029 | [10] 0.041 | ralimetinib -0.038 | [11] -0.024 | [12] 0.04 | [13] 0.056 | pinometostat 0.004 | [14] -0.013 | [15] 0.072

SCYL1 (UniProt Q96KG9)
inactive: erlotinib -0.016 | [1] 0.037 | [2] 0.048 | [3] 0.034 | [4] 0.001 | [5] 0.051 | [6] -0.011 | [7] -0.013 | [8] -0.024 | [9] 0.032 | IRAK-1-4 Inhibitor I -0.01 | ibrutinib -0.027 | [10] 0 | ralimetinib 0.012 | [11] -0.044 | [12] 0.112 | [13] 0.031 | pinometostat -0.02 | [14] 0.013 | [15] 0.015

Following part:

RTN3 (UniProt O95197)
inactive: erlotinib -0.03 | [1] 0.015 | [2] -0.006 | [3] 0.005 | [4] -0.026 | [5] 0.019 | [6] -0.037 | [7] -0.009 | [8] -0.002 | [9] 0.039 | IRAK-1-4 Inhibitor I 0.017 | ibrutinib 0.005 | [10] -0.028 | ralimetinib -0.065 | [11] 0.038 | [12] 0.013 | [13] -0.002 | pinometostat -0.036 | [14] 0.023 | [15] 0.013

RTF1 (UniProt Q92541)
inactive: erlotinib -0.053 | [1] 0.058 | [2] 0.066 | [3] 0.013 | [4] 0.041 | [5] 0.001 | [6] -0.038 | [7] 0.014 | [8] -0.015 | [9] 0.02 | IRAK-1-4 Inhibitor I 0.003 | ibrutinib -0.003 | [10] -0.09 | ralimetinib -0.054 | [11] -0.066 | [12] -0.028 | [13] 0.016 | pinometostat -0.034 | [14] -0.005 | [15] 0.029

RSBN1L (UniProt Q6PCB5)
inactive: erlotinib -0.114 | [1] -0.297 | [2] -0.301 | [3] 0.02 | [4] -0.053 | [5] -0.036 | [6] -0.04 | [7] -0.074 | [8] 0.05 | [9] -0.037 | IRAK-1-4 Inhibitor I -0.092 | ibrutinib 0.074 | [10] 0.062 | ralimetinib 0.14 | [11] 0.057 | [12] 0.043 | [13] 0.107 | pinometostat 0.235 | [14] 0.007 | [15] -0.207

SEC13 isoform 3 (UniProt P55735)
inactive: erlotinib -0.028 | [1] 0.02 | [2] 0.061 | [3] -0.033 | [4] -0.014 | [5] 0.05 | [6] 0.013 | [7] -0.097 | [8] 0.003 | [9] -0.029 | IRAK-1-4 Inhibitor I -0.03 | ibrutinib -0.018 | [10] 0.007 | ralimetinib -0.033 | [11] 0.015 | [12] 0.005 | [13] -0.006 | pinometostat 0.013 | [14] 0.08 | [15] 0.011

SDHB (UniProt P21912)
inactive: erlotinib -0.025 | [1] -0.033 | [2] -0.015 | [3] -0.012 | [4] -0.044 | [5] 0.033 | [6] 0.013 | [7] -0.016 | [8] 0.035 | [9] 0.037 | IRAK-1-4 Inhibitor I 0.066 | ibrutinib 0.022 | [10] 0.017 | ralimetinib -0.037 | [11] -0.025 | [12] 0.068 | [13] 0.031 | pinometostat -0.026 | [14] 0.009 | [15] -0.049

SAP30BP (UniProt Q9UHR5)
inactive: erlotinib 0.065 | [1] 0.006 | [2] 0.023 | [3] -0.026 | [4] -0.019 | [5] 0.143 | [6] -0.037 | [7] -0.023 | [8] -0.025 | [9] -0.004 | IRAK-1-4 Inhibitor I 0.079 | ibrutinib -0.035 | [10] -0.039 | ralimetinib -0.024 | [11] -0.036 | [12] 0.053 | [13] 0.067 | pinometostat -0.032 | [14] 0.028 | [15] -0.073

RRP7A (UniProt Q9Y3A4)
inactive: erlotinib -0.075 | [1] 0.026 | [2] -0.101 | [3] 0.004 | [4] -0.176 | [5] -0.014 | [6] 0.038 | [7] 0.141 | [8] -0.068 | [9] -0.089 | IRAK-1-4 Inhibitor I -0.028 | ibrutinib -0.084 | [10] 0.005 | ralimetinib 0.051 | [11] 0.025 | [12] 0.008 | [13] 0.024 | pinometostat 0.083 | [14] 0.087 | [15] 0.021

SCAMP1 (UniProt O15126)
inactive: erlotinib 0.015 | [1] -0.04 | [2] 0.019 | [3] 0.037 | [4] -0.046 | [5] 0.025 | [6] 0.001 | [7] -0.032 | [8] 0.011 | [9] 0.057 | IRAK-1-4 Inhibitor I 0.02 | ibrutinib 0.037 | [10] -0.003 | ralimetinib -0.072 | [11] 0.019 | [12] 0.004 | [13] -0.024 | pinometostat 0.015 | [14] 0.002 | [15] -0.059

SCLY (UniProt Q96I15)
inactive: erlotinib 0 | [1] 0.028 | [2] 0.066 | [3] 0.036 | [4] -0.006 | [5] 0.014 | [6] 0.004 | [7] 0.009 | [8] 0.037 | [9] 0.028 | IRAK-1-4 Inhibitor I -0.004 | ibrutinib -0.002 | [10] -0.009 | ralimetinib -0.028 | [11] -0.047 | [12] 0.048 | [13] 0.034 | pinometostat -0.046 | [14] 0.025 | [15] -0.008

SCRN3 (UniProt Q0VDG4)
inactive: erlotinib -0.029 | [1] 0.022 | [2] 0.064 | [3] 0.067 | [4] -0.027 | [5] 0.026 | [6] -0.02 | [7] 0.067 | [8] -0.024 | [9] 0.012 | IRAK-1-4 Inhibitor I 0.051 | ibrutinib 0.018 | [10] 0.002 | ralimetinib 0.023 | [11] -0.04 | [12] 0.021 | [13] -0.003 | pinometostat -0.032 | [14] -0.001 | [15] -0.037

SAE1 (UniProt Q9UBE0)
inactive: erlotinib -0.047 | [1] 0.04 | [2] 0.095 | [3] 0.017 | [4] -0.015 | [5] 0.037 | [6] -0.014 | [7] -0.021 | [8] 0.003 | [9] -0.014 | IRAK-1-4 Inhibitor I 0.032 | ibrutinib -0.028 | [10] 0.015 | ralimetinib -0.065 | [11] -0.02 | [12] 0.015 | [13] -0.046 | pinometostat -0.045 | [14] 0.004 | [15] -0.014

RTRAF (UniProt Q9Y224)
inactive: erlotinib -0.02 | [1] -0.021 | [2] -0.126 | [3] -0.075 | [4] 0.019 | [5] 0.026 | [6] -0.077 | [7] 0.01 | [8] 0.042 | [9] -0.077 | IRAK-1-4 Inhibitor I -0.01 | ibrutinib -0.021 | [10] 0.056 | ralimetinib 0 | [11] 0.004 | [12] -0.007 | [13] 0.081 | pinometostat 0.151 | [14] 0.017 | [15] -0.016
